Experimental data published in publication PMC13215203.
These are yes or no findings as the source states them, for the method shown. Tags and fused reporters may be left off the sequences shown. Values belong to the binder of their own block, whether it stands above or below them.

Assays:
[1] = target: T1, M6HH-tagged SPD-5 amino acids 1-60, not phosphorylated (C. elegans) (UniProt P91349); experiment: pull-down; MBP pull-down: purified SPD-5 fragments mixed (2.0 μM) with or without PLK1(T194D) in kinase buffer, then 75 nM each with anti-MBP antibody in lysis buffer 2 h at 4°C and protein A beads 1 h; M6HH-tagged fragment is the bait; immunoblot; both purified
T1 sequence: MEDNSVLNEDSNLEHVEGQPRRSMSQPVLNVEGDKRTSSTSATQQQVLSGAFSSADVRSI

[2] = target: T2, M6HH-tagged SPD-5 amino acids 1-113 (PRGB1), not phosphorylated (C. elegans) (UniProt P91349); experiment: as above
T2 sequence: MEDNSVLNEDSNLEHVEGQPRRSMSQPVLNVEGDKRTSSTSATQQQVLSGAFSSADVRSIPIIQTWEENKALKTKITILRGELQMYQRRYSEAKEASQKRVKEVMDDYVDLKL

[3] = target: M6HH-tagged SPD-5 amino acids 1-200, not phosphorylated (C. elegans) (UniProt P91349); experiment: SEC-MALS; Superose 6 increase 10/300 or Superdex 200 increase 10/300 in 20 mM tris-HCl pH 7.5, 50 mM NaCl, 5 mM EGTA, 2 mM MgCl2, 1 mM DTT; 120 μl of ~2.0 mg/ml protein loaded; with or without PLK1 phosphorylation; both purified
[4] = target: T2, M6HH-tagged SPD-5 amino acids 1-113 (PRGB1), not phosphorylated (C. elegans); experiment: as above
[5] = target: M6HH-tagged SPD-5 amino acids 1-113 (PRGB1), phosphorylated by PLK1 (C. elegans) (UniProt P91349); experiment: as above

binding [1]: no binding (tested: 75 nM)
B1: untagged SPD-5 amino acids 101-473, not phosphorylated (domain or fragment, UniProt P91349 101-473)
chain: VKEVMDDYVDLKLGQENVQEKMEQYKLMEEDLLAMQSRIETSEDNFARQMKEFEAQKHAMEERIKELELSATDANNTTVGSFRGTLDDILKKNDPDFTLTSGYEERKINDLEAKLLSEIDKVAELEDHIQQLRQELDDQSARLADSENVRAQLEAATGQGILGAAGNAMVPNSTFMIGNGRESQTRDQLNYIDDLETKLADAKKENDKARQALVEYMNKCSKLEHEIRTMVKNSTFDSSSMLLGGQTSDELKIQIGKVNGELNVLRAENRELRIRCDQLTGGDGNLSISLGQSRLMAGIATNDVDSIGQGNETGGTSMRILPRESQLDDLEESKLPLMDTSSAVRNQQQFASMWEDFESVKDSLQNNHNDTLE

binding [2]: no binding (tested: 75 nM)
B2: Halo-tagged SPD-5 amino acids 200-345, not phosphorylated (domain or fragment, UniProt P91349 200-345)
chain: TSGYEERKINDLEAKLLSEIDKVAELEDHIQQLRQELDDQSARLADSENVRAQLEAATGQGILGAAGNAMVPNSTFMIGNGRESQTRDQLNYIDDLETKLADAKKENDKARQALVEYMNKCSKLEHEIRTMVKNSTFDSSSMLLGG

binding [3]: no binding (tested: ~2.0 mg/ml loaded)
B3: M6HH-tagged SPD-5 amino acids 1-200, not phosphorylated (domain or fragment, UniProt P91349 1-200)
chain: MEDNSVLNEDSNLEHVEGQPRRSMSQPVLNVEGDKRTSSTSATQQQVLSGAFSSADVRSIPIIQTWEENKALKTKITILRGELQMYQRRYSEAKEASQKRVKEVMDDYVDLKLGQENVQEKMEQYKLMEEDLLAMQSRIETSEDNFARQMKEFEAQKHAMEERIKELELSATDANNTTVGSFRGTLDDILKKNDPDFTLT

binding [4]: no binding (tested: ~2.0 mg/ml loaded)
B4: M6HH-tagged SPD-5 amino acids 1-113 (PRGB1), not phosphorylated (domain or fragment, UniProt P91349 1-113)
chain: MEDNSVLNEDSNLEHVEGQPRRSMSQPVLNVEGDKRTSSTSATQQQVLSGAFSSADVRSIPIIQTWEENKALKTKITILRGELQMYQRRYSEAKEASQKRVKEVMDDYVDLKL

binding [5]: no binding (tested: ~2.0 mg/ml loaded)
B5: M6HH-tagged SPD-5 amino acids 1-113 (PRGB1), phosphorylated by PLK1 (domain or fragment, UniProt P91349 1-113)
chain: MEDNSVLNEDSNLEHVEGQPRRSMSQPVLNVEGDKRTSSTSATQQQVLSGAFSSADVRSIPIIQTWEENKALKTKITILRGELQMYQRRYSEAKEASQKRVKEVMDDYVDLKL
modifications: phosphorylated in vitro by PLK1(T194D); candidate sites S5 and S11
